Reference: PMC7583250, “Type III ATP synthase is a symmetry-deviated dimer that induces membrane curvature through tetramerization” (Nature Communications, 2020)
No constants are given. Whether binding was seen depends on the method and setting. Binding calls can cover weak binding; strength is not graded here.

Key:
Assay in all cases: cryo-EM structure; native IF1-inhibited ATP synthase dimer purified from T. thermophila mitochondria in digitonin (25 mM Hepes/KOH pH 7.5, 25 mM KCl, 5 mM MgCl2, 0.1% w/v digitonin); 2.7 Å overall, masked refinements 2.5-3.1 Å; both purified
[1] = target: ATP synthase Fo subunit c (Tetrahymena thermophila (endogenous in its mitochondria))
[2] = target: ATP synthase subunit d (Tetrahymena thermophila (endogenous in its mitochondria))
[3] = target: ATP synthase subunit-8 (Tetrahymena thermophila (endogenous in its mitochondria))
[4] = target: ATP synthase subunit-i/j (Tetrahymena thermophila (endogenous in its mitochondria))
[5] = target: ATP synthase subunit-k (Tetrahymena thermophila (endogenous in its mitochondria))
[6] = target: ATPTT12 (Tetrahymena thermophila (endogenous in its mitochondria))
[7] = target: ATPTT5 (Tetrahymena thermophila (endogenous in its mitochondria))
[8] = target: ATPTT6 (Tetrahymena thermophila (endogenous in its mitochondria))
[9] = target: ATPTT7 (Tetrahymena thermophila (endogenous in its mitochondria))
[10] = target: ATPTT8 (Tetrahymena thermophila (endogenous in its mitochondria))
[11] = target: ATPTT9 (Tetrahymena thermophila (endogenous in its mitochondria))

Measured: binding

B1: ATP synthase subunit-a (natural protein, UniProt Q951C1 1-446, looked up)
chain: MGRENVLPVHNDVYEDFVFTTPYFQPESTFKSVPKLFSDILLGGVEWVYTTSESVLAYDYKLWYLWSGVSNLDESFDMFFNQYWALSLSTSVFQLFYAVILDRYLSVLFQNTPYTNDWFRMMLHSKETALIWLYHPELSWHINGLNQFFTYFYGGILEFVYFDKSNPDMCILVHTLWIHLLILFLIFTGFVTILFSFYGNPNTEENTIDSDYLAASGTVEAEKEITSIDDYLGLVFAIAYVFGVFFYVHGWTSMLSHAVLLLSCYSIIIMFLFILGMPTLLLYDFGIFFLAYLKGAGKYISSVAEMMFDYTACLVFYIRILAQWIRVVLMVVTFISLSHYVSDFDITNSALIGSENQSDSMNELNTNFSMTYYILTVLPGKFIYWIYEILHTFFVVCSQFVAFFAIVFWLFLFLYTFFIIEKHEDFFSKKREERKKKLKELWNLKN
notes: ATP synthase subunit a, Tetrahymena thermophila; overall length of 446 amino acids, with 170- and 38-amino acid N- and C-terminal extensions; source: endogenous, purified from T. thermophila mitochondria within the ATP synthase (digitonin, sucrose cushion, Superose 6)
binds: all assays above
